Values joined by “and” are separate entries in the source; they are usually repeats but may differ in a detail not shown here. Identical values can stand only once. Screen size: about 320,000 compounds; about 740 (0.23%) were called active. This list was built around the results that the source calls inconclusive (neither active nor inactive); the mix of calls is not that of the screen. Calls come from the whole dose curve; as a rule, active = well fitted activation curve with a large enough effect; inconclusive = small, poorly fitted or top-dose-only effect; inactive = no such curve, though single readings can be large or run the other way. Where the call is inconclusive, the potency comes from a doubtful curve fit.
Assay: qHTS Assay for Small Molecule Inhibitors of Mitochondrial Division or Activators of Mitochondrial Fusion; note: nearly all actives have a fitted effect of over 45% in size; for growth rescue (activation): % of control where 0% means no effect
Details: S. cerevisiae fusion-defective mutant growth rescue, CellTiterGlo 48 h; growth rescue (activation): at 46.1 µM (top of the series) unless noted
Procedure, shortened: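 S. cerevisiae fusion-defective temperature-sensitive mutants (e.g. fzo1-1, mgm1-5) grown 48 h at 37C in YPEG (ethanol/glycerol non-fermentable) medium with 23 nl compound per well; growth rescue read as CellTiterGlo luminescence.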
For Cc1cc(OCC(=O)N2CCc3ccccc3C2)c2c(-c3ccccc3)cc(=O)oc2c1, the Potency was inconclusive: 12.6 µM [activator, partial curve]. In the case of NC[C@@H]1O[C@H](C23CC4CC(CC(C4)C2)C3)Cc2c1ccc(O)c2O, the Potency is reported as “inactive and inconclusive: 10.3 µM [activator, partial curve]”. For Cc1ccc(SCc2[nH]nc3c2C(c2ccc(C)o2)C(C#N)=C(N)O3)cc1 (stereo not given), the “growth rescue (activation)” value was inactive: 0.95%. In the case of Cc1ccc(OCCCCN2CCCC(C)C2)c([N+](=O)[O-])c1 (stereo not given), the Potency is reported as inconclusive: 17.8 µM [activator, single point]. In the case of Cc1ccc(SCC(=O)c2ccc(CC(=O)O)s2)cc1, the “growth rescue (activation)” value is reported as inactive: 1.72%. With Cc1ccc(COC(=O)c2cccc(S(=O)(=O)N3CCCCC3)c2)cc1 the Potency was inconclusive: 15.8 µM [activator, single point]. With O=C(NCC1CCCO1)C12CN(Cc3ccccc3)CC1C(c1cccc([N+](=O)[O-])c1)=NO2 (stereo not given) the Potency was inconclusive: 0.501 µM [activator, full curve, poor fit]. For CC(=O)c1sc2c(c1OC(=O)c1ccc(Cl)cc1Cl)c(=O)n(-c1ccccc1)c(=S)n2-c1ccccc1, the Potency was inconclusive: 17.8 µM [activator, partial curve]. With CCc1ccccc1NC(=O)CSc1nc2n[nH]c(C)c2c(=N)n1-c1ccc(OC)cc1 the “growth rescue (activation)” value was inactive: -0.896%. With Cc1ccc(-n2cnc3scc(-c4cccs4)c3c2=O)cc1 the Potency was inconclusive: 17.8 µM [activator, partial curve]. With Cc1cc(C)c(S(=O)(=O)NCCn2ccc3ccccc32)c(C)c1 the Potency was inconclusive: 31.6 µM [activator, single point]. In the case of O=c1c2ccccc2c(-c2ccc(O)cc2)nn1-c1cccc(C(F)(F)F)c1, the Potency is reported as inconclusive: 3.98 µM [activator, single point]. For CC(C)CN(C(=O)CN1CCCCCC1)c1c(N)n(CC(C)C)c(=O)[nH]c1=O, the Potency was inconclusive: 3.55 µM [activator, partial curve]. For COc1ccc(C2CC(c3ccc(Br)cc3)=NN2C(=O)CSC2=NCCS2)cc1 (stereo not given), the Potency was inconclusive: 14.1 µM [activator, single point]. For COc1ccccc1CNC(=O)C1CCCN(c2cnccn2)C1 (stereo not given), the Potency was inconclusive: 0.316 µM [activator, full curve, poor fit]. In the case of O=C(COC(=O)/C=C/c1ccco1)Nc1ccc(F)cc1Cl, the “growth rescue (activation)” value is reported as inactive: -2.61%. For c1csc(-c2nc(N3CCOCC3)c3ccccc3n2)c1, the “growth rescue (activation)” value was inactive: -5.17%. For COc1ccc(C(=O)NC2CCCc3c2cnn3-c2cccc(C)c2C)o1 (stereo not given), the Potency was inconclusive: 35.5 µM [activator, single point]. For O=C(/C=C(\c1ccccc1)n1cncn1)c1ccccc1, the Potency was inconclusive: 22.4 µM [activator, single point]. In the case of Cc1cc(NS(=O)(=O)c2ccc(NC(=O)CSc3nc4sc(C)c(C)c4c(=O)[nH]3)cc2)no1, the Potency is reported as inconclusive: 3.55 µM [activator, partial curve]. In the case of CC(C)N(Cc1ccccc1)C(=S)Nc1cccnc1, the “growth rescue (activation)” value is reported as inactive: 2.84%. With CC(=O)Nc1ccc(S(=O)(=O)N2CCn3cccc3C2C)cc1 (stereo not given) the Potency was inconclusive: 35.5 µM [activator, partial curve, poor fit]. With Cc1ccccc1NC1=NC(C)(C)N=C(N)N1 the “growth rescue (activation)” value was inactive: -0.664%. For Cc1ccccc1OCC(O)Cn1c(Br)nc2c1c(=O)n(C)c(=O)n2C (stereo not given), the Potency was inconclusive: 35.5 µM [activator, single point]. For CN(C(=S)Oc1ccc(C(=O)Nc2ccccc2)cc1)c1ccccc1, the Potency was inconclusive: 22.4 µM [activator, partial curve]. For CCCOC(=O)c1ccc(Oc2cn[nH]c2-c2ccc(OC)cc2O)cc1, the Potency was inconclusive: 12.6 µM [activator, partial curve]. In the case of Cc1ccc(CC(=O)c2ccc(Cl)cc2)cc1, the “growth rescue (activation)” value is reported as inactive: 1.65%. In the case of CC(=O)Nc1ccc(NC(=O)COC(=O)c2c(C)nn(-c3ccccc3)c2C)cc1, the “growth rescue (activation)” value is reported as inactive: -4.54%. In the case of CCCCOc1ccc(Br)cc1/C(C)=N/NC1=NCCN1, the “growth rescue (activation)” value is reported as inactive: 1.86%. In the case of O=C(NCc1ccco1)c1cnn2c1NC(c1ccc(Br)cc1)CC2C(F)(F)F (stereo not given), the Potency is reported as inconclusive: 20 µM [activator, single point]. With Cn1c(C(=O)NCc2ccccc2)cc2oc3ccccc3c21 the “growth rescue (activation)” value was inactive: 3.74%. With COc1ccc(Oc2nc3c(c(=O)n(C)c(=O)n3C)n2Cc2ccc(Cl)cc2Cl)cc1 the “growth rescue (activation)” value was inactive: -5.8%. For Cc1nc2cc(NC(=O)Nc3ccccc3Cl)ccc2n1C, the “growth rescue (activation)” value was inactive: -5.22%. For CC(=O)Nc1ccc(SCC(=O)c2cc(C)n(-c3ccccc3)c2C)cc1, the Potency was inconclusive: 22.4 µM [activator, single point]. In the case of Nc1nc(SCc2ccc(Cl)cc2Cl)n[nH]1, the Potency is reported as inconclusive: 35.5 µM [activator, single point]. For Cn1c2ccccc2c(=O)c2cc(C#CC3(O)CCCCC3)ccc21, the “growth rescue (activation)” value was inactive: 0.337%. With CCN(CC)C(=O)CCCSc1nnc(Nc2ccccc2F)s1 the “growth rescue (activation)” value was inactive: -2.71%. With Cc1onc(-c2ccccc2)c1C(=O)Nc1sc2c(c1C#N)CCC2 the Potency was inconclusive: 14.1 µM [activator, single point]. For O=C(/C=C/c1ccc(Br)cc1)NCc1cccs1, the Potency was inconclusive: 31.6 µM [activator, single point]. In the case of Nc1ccc2c(c1)C(=O)C(=O)c1ccccc1-2, the “growth rescue (activation)” value is reported as inactive: -14.4%. With CN(C)c1ccc(N=c2sc3ccccc3n2C)cc1 the Potency was inconclusive: 22.4 µM [activator, partial curve, poor fit]. With Cc1nn(-c2nnc(NC3CCCCC3)nn2)c(C)c1Br the Potency was inconclusive: 17.8 µM [activator, single point]. With COc1ccc(/C=N/NC(=O)c2cccc(NC(=O)c3ccc(F)cc3)c2)c(C(=O)O)c1OC the Potency was inconclusive: 5.62 µM [activator, partial curve, poor fit]. For COc1cccc(NC(=O)C2CCCN2C(=O)Nc2cccc(F)c2)c1 (stereo not given), the Potency was inconclusive: 31.6 µM [activator, single point]. For Cc1cc(C)nc(NC(=O)c2c(-c3ccccc3Cl)noc2C)c1, the Potency was inconclusive: 12.6 µM [activator, partial curve].

From PubChem BioAssay AID485298 (National Center for Advancing Translational Sciences (NCATS), 2010)
Potency is the fitted concentration of half-maximal effect.
